In all, about 350,000 compounds went through this assay and about 6,000 (1.7%) were called active. This list was built around the results that the source calls inconclusive (neither active nor inactive); the mix of calls is not that of the screen. Cut-off read from the data, not from the text of the source: active = CPE inhibition above about 20% (passing the limit was not always enough); inconclusive = no clear call, values can overlap the other calls; tested in BHK-21 cells.
Assay: protection of cells from dengue 2 killing – plate reader, single concentration, primary screen (AID 651640);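 note: 0% = median of neutral control wells and 100% = median of positive control wells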
Conditions: DENV2-infected cells, cytopathic effect rescue, at 9.99 µM, hits give high values
In the case of `COc1ccc(NC(=O)C2CCC2)cc1S(=O)(=O)N1CCOCC1`, the CPE inhibition is reported as inconclusive: 25.2%. For `COc1ccc(CN2C(=NC(=O)c3ccccc3)SC3CS(=O)(=O)CC32)cc1OC` (stereo unspecified), the CPE inhibition was inconclusive: 27.1%. For `Cc1cc(C(=O)N/N=C/C=C/c2ccc(Br)cc2)n[nH]1`, the CPE inhibition was inconclusive: 21.1%. With `Cc1ccc2nc(-c3cccc(NS(C)(=O)=O)c3)cc(-c3ccccc3)c2c1` the CPE inhibition was inactive: 14%. In the case of `CCCNC(=O)N1[C@H](C#N)[C@@H](c2ccccc2)[C@@H]1CO`, the CPE inhibition is reported as inactive: -5.1%. With `C[C@@H]1CN([C@@H](C)CO)C(=O)CCCn2nncc2CO[C@@H]1CN(C)Cc1ccc2c(c1)OCO2` the CPE inhibition was inactive: -2.08%. In the case of `COc1ccc(S(=O)(=O)Nc2cccc3c2O[C@H](CN(C)Cc2ccc(Cl)c(Cl)c2)[C@@H](C)CN([C@H](C)CO)C3=O)cc1`, the CPE inhibition is reported as active: 25.2%. For `CCOc1ccc(S(=O)(=O)c2cn(C)c3cc(OC)c(OC)cc3c2=O)cc1`, the CPE inhibition was inconclusive: 25.3%. In the case of `CCNC(=O)[C@H]1[C@H](CO)[C@H]2Cn3c(ccc(/C=C/c4ccccc4)c3=O)[C@H]2N1C(=O)C1CC1`, the CPE inhibition is reported as inconclusive: 49.6%. In the case of `COc1ccc(S(=O)(=O)N(C)C[C@H]2Oc3c(NS(=O)(=O)c4cccs4)cccc3C(=O)N([C@@H](C)CO)C[C@@H]2C)cc1`, the CPE inhibition is reported as active: 36%. In the case of `CCCN1[C@H](C(=O)NCC)[C@@H](CO)[C@@H]2Cn3c(ccc(-c4ccc(C(=O)N(C)C)cc4)c3=O)[C@@H]21`, the CPE inhibition is reported as inactive: -2.17%. With `COCCN(C(=O)c1ccccc1F)c1nnc(-c2ccc(OC)cc2)s1` the CPE inhibition was inconclusive: 40.8%. In the case of `COC(=O)C1=C(C)Nc2nc(SCc3ccccc3)[nH]c(=O)c2C1c1cccs1` (stereo unspecified), the CPE inhibition is reported as inactive: 2.78%. For `CCN(CC)c1ccc(Nc2nc(Cl)ncc2Br)cc1`, the CPE inhibition was inactive: 5.1%. In the case of `COC(=O)N1C(=O)[C@@](c2ccccc2)(C2CCCCC2)N1C(=O)OC`, the CPE inhibition is reported as inconclusive: 37%. In the case of `Cc1cccc(C)c1-n1nnnc1C1(C)CCC(=O)N1Cc1cccs1` (stereo unspecified), the CPE inhibition is reported as active: 56.9%. With `COc1ccc2c3c(n(C)c2c1)[C@H](CO)N(CC1CC1)CC31CCN(C(=O)CN2CCOCC2)CC1` the CPE inhibition was inactive: -7.3%. In the case of `COc1cc(OC)c(C(=O)Nc2cc(S(=O)(=O)N3CCOCC3)ccc2N2CCN(C)CC2)cc1OC`, the CPE inhibition is reported as inconclusive: 26.2%. In the case of `O=C(C[C@H]1CC[C@H](NS(=O)(=O)c2ccc(F)cc2)[C@@H](CO)O1)N1CCN(c2ccccc2)CC1`, the CPE inhibition is reported as inactive: -1.92%. With `C=C1SC(Nc2c(C)cc(C)cc2C)=NC12CCCCC2` the CPE inhibition was inconclusive: 25.3%. With `CN(C)Cc1ccccc1-c1cccc2nccn12` the CPE inhibition was inconclusive: 38.3%. With `CC(=O)NCCCC[C@@H]1NC(=O)[C@@H]2C[C@H](C(=O)O)[C@H](c3ccc(O)cc3)N2C1=O` the CPE inhibition was inactive: 4.72%. With `CC(=O)Nc1ccc(C=NNC(=O)CCCC(=O)NN=Cc2ccc(NC(C)=O)cc2)cc1` the CPE inhibition was inactive: -0.302%. For `O=C(Cc1cn(Cc2ccccc2)c2ccccc12)Nc1ccc(Oc2cccnc2)cc1`, the CPE inhibition was active: 48.6%. For `C[C@@H]1CN([C@H](C)CO)S(=O)(=O)c2ccc(C#Cc3ccccc3)cc2O[C@@H]1CN(C)C(=O)c1ccccn1`, the CPE inhibition was active: 42.2%. For `O=S(=O)(c1ccc(F)cc1)N1CCN(c2nc(-c3ccc(F)cc3)cs2)CC1`, the CPE inhibition was inconclusive: 23%. For `Nc1ccn([C@@H]2O[C@H](C(=O)NCCc3ccc(F)cc3)[C@@H](O)[C@H]2O)c(=O)n1`, the CPE inhibition was active: 87.3%. In the case of `Cc1ccc(NC(=S)NC(=O)C2CCC2)cc1C`, the CPE inhibition is reported as active: 68.9%. For `Cc1ccc2c(c1)N(CC(=O)NCCCN1CCOCC1)C(=O)c1cccnc1O2`, the CPE inhibition was inactive: -3.7%. With `COc1cc(/C=C2/C(C)=C(C#N)c3nc(N)c(C#N)c(C)c32)ccc1OCC(=O)O` the CPE inhibition was inactive: -2.66%. For `C[C@@H]1CN([C@H](C)CO)S(=O)(=O)c2ccc(C3=CCCC3)cc2O[C@H]1CN(C)C(=O)C1CCOCC1`, the CPE inhibition was inactive: 3.71%. With `COc1cc(OC)cc(C(=O)Nc2ccc(C(=O)Nc3ccccc3OC)cc2)c1` the CPE inhibition was inactive: -5.07%. For `COCC(=O)N1[C@H](C(=O)NCc2ccccc2Cl)[C@@H](CO)[C@@H]2Cn3c(cccc3=O)[C@@H]21`, the CPE inhibition was inactive: -11.1%. In the case of `COC(=O)c1nc(-c2ccccc2)nc(-c2ccccc2)c1C(=O)OC`, the CPE inhibition is reported as inconclusive: 33.9%. With `Cc1ccc(S(=O)(=O)Nc2ccc3[nH]ccc3c2)cc1` the CPE inhibition was inconclusive: 46.7%. With `CCS(=O)(=O)Nc1ccc2c(c1)C(=O)N(C)[C@@H]1CC[C@H](CC(=O)OC)O[C@H]1CO2` the CPE inhibition was inconclusive: 57.2%. With `O=C(C1CCCC1)N1CCC(CC2CC(c3cccc(Br)c3)=NO2)(C(=O)NCC2CCCCC2)CC1` (stereo unspecified) the CPE inhibition was active: 52.8%. For `COc1ccc(CC(=O)N/N=C(\C)c2cccs2)cc1OC`, the CPE inhibition was inconclusive: 26.2%. For `O=C1NC[C@H](CCCCN2C[C@H](Cc3ccc(O)cc3)N(CCC3CCCCC3)C(=O)C2=O)N(CCC2CCCCC2)C1=O`, the CPE inhibition was inconclusive: 22.9%. With `Cc1ccc(C(=O)NCCNC(=O)c2ccc(C)o2)o1` the CPE inhibition was inconclusive: 50.1%. In the case of `C=C1[C@H](C)CN[C@H]1CCO`, the CPE inhibition is reported as inconclusive: 26.3%. With `CCCCCCCCOC(=O)C[N+](C)(C)C/C=C(/C)Cl` the CPE inhibition was inactive: 8.52%. In the case of `COc1ccccc1/C=C/C=O`, the CPE inhibition is reported as active: 25.1%. In the case of `Cc1ccc(-c2nnc(SCC(=O)NC3CC3)o2)cc1`, the CPE inhibition is reported as inconclusive: 36.9%. In the case of `NS(=O)(=O)c1cccc(NC(=O)CSc2nnc(-c3ccccc3F)n2C2CC2)c1`, the CPE inhibition is reported as inactive: -0.55%. With `NC(=O)C1(N2CCCCC2)CCN(C(=O)c2cc(COc3c(F)cccc3F)on2)CC1` the CPE inhibition was inconclusive: 30.1%. With `C[C@@H]1CCCCO[C@H](CN(C)Cc2ccc(C(F)(F)F)cc2)[C@@H](C)CN([C@@H](C)CO)C(=O)c2cc(NS(=O)(=O)c3cccs3)ccc2O1` the CPE inhibition was inconclusive: 36%. With `O=C(CN1CCOCC1)NCC[C@@H]1CC[C@H](NS(=O)(=O)c2ccc(F)cc2)[C@@H](CO)O1` the CPE inhibition was inactive: -5.58%. With `Cc1cc(C)c(NC(=S)N(Cc2cccnc2)Cc2ccco2)c(C)c1` the CPE inhibition was active: 48.8%. For `Cc1ccc(NC(=O)C2c3ccccc3Oc3ccccc32)c(C)c1`, the CPE inhibition was inconclusive: 47.1%. In the case of `COc1ccc(C(=O)Nc2c(N)nc(SCC(=O)N3CCCCCC3)[nH]c2=O)cc1OC`, the CPE inhibition is reported as inconclusive: 22.4%. In the case of `CC(c1cccnc1)N(C(=O)Nc1ccccc1)C1CCCCC1` (stereo unspecified), the CPE inhibition is reported as inconclusive: 26.2%. With `CCCNC(=O)Nc1ccc2c(c1)C(=O)N(C)C[C@H](OC)[C@H](C)CN(C(=O)C1CC1)[C@H](C)CO2` the CPE inhibition was inconclusive: 31%. For `C[C@@H]1CN([C@@H](C)CO)C(=O)Cc2cc(NS(C)(=O)=O)ccc2O[C@H]1CN(C)Cc1ccc(Oc2ccccc2)cc1`, the CPE inhibition was active: 29.8%. With `Cn1cnc(S(=O)(=O)N[C@@H]2CC[C@@H](CC(=O)NCC3CCCCC3)O[C@@H]2CO)c1` the CPE inhibition was inactive: -2.19%. With `Nc1nc2ccccc2n1Cc1ccc(Cl)c(Cl)c1` the CPE inhibition was active: 33.4%. For `O=C(Nc1ccc(C(=O)N2CCC(O)(c3ccc(Cl)c(C(F)(F)F)c3)CC2)cc1)c1ccc(Br)o1`, the CPE inhibition was inconclusive: 39.9%. For `CC(C)NC(=O)N(C)C[C@H]1Oc2c(NC(=O)c3cnccn3)cccc2C(=O)N([C@H](C)CO)C[C@@H]1C`, the CPE inhibition was inactive: -8.04%. In the case of `C[C@@H]1CCCCO[C@@H](CN(C)C(=O)NC2CCCCC2)[C@@H](C)CN([C@@H](C)CO)C(=O)c2cc(NC(=O)NC3CCCCC3)ccc2O1`, the CPE inhibition is reported as inactive: -9.4%. In the case of `CC1C(=O)N(Cc2cn(Cc3ccco3)nn2)CCS(=O)(=O)N1Cc1ccc(-c2ccc(F)nc2)cc1` (stereo unspecified), the CPE inhibition is reported as inconclusive: 32.2%. In the case of `C[C@H](CO)N1C[C@H](C)[C@@H](CN(C)C(=O)c2ccc(F)cc2)Oc2ncc(-c3ccncc3)cc2C1=O`, the CPE inhibition is reported as inconclusive: 27%. For `Cc1cccc(C)c1NC(=O)CN(C)C(=O)CSCc1c(C)noc1C`, the CPE inhibition was inconclusive: 45.4%. In the case of `COc1cc(NC(=O)c2cc(-c3ccccc3)on2)cc(OC)c1OC`, the CPE inhibition is reported as inconclusive: 56.3%. With `CCOC(=O)Cc1csc(NC(=O)c2cc(C)c(C)s2)n1` the CPE inhibition was inconclusive: 21.1%. With `C[C@@H](C(=O)Nc1ccc2ccccc2c1)[C@@H]1C[C@@]1(C)[C@@H](N)c1ccccc1` the CPE inhibition was inconclusive: 30%. With `CCC(O)(C(=O)Nc1ccccc1C(F)(F)F)c1ccccc1OC` (stereo unspecified) the CPE inhibition was inconclusive: 29.8%. With `CC(C)=NNC(=O)CN1C(=O)NC2NC(=O)NC21` (stereo unspecified) the CPE inhibition was active: 33.7%. With `Clc1ccc(C=NNc2ccccn2)c(Cl)c1` the CPE inhibition was inconclusive: 25.2%. With `C[C@H](CO)N1C[C@H](C)[C@@H](CN(C)S(=O)(=O)c2cn(C)cn2)Oc2ccc(NC(=O)Nc3ccc(F)cc3)cc2C1=O` the CPE inhibition was inconclusive: 22.6%. With `C[C@H](O)C#Cc1ccc2c(c1)O[C@H](CN(C)Cc1cccnc1)[C@H](C)CN([C@H](C)CO)S2(=O)=O` the CPE inhibition was inactive: 9.35%. With `CCCCc1cc(=O)oc2cc(OCC(=O)NC(Cc3c[nH]c4ccc(O)cc34)C(=O)O)ccc12` (stereo unspecified) the CPE inhibition was inconclusive: 27.4%. With `COC(=O)CCN(C(=O)c1ccc(N2CCCC2)c([N+](=O)[O-])c1)c1ccccn1` the CPE inhibition was inconclusive: 34.9%. For `COc1cccc(-c2ccc([C@@H]3[C@H]4CN(C(=O)c5ccc(F)cc5)CCCCN4[C@H]3CO)cc2)c1`, the CPE inhibition was inactive: 5.92%. In the case of `O=C(C[C@H]1CC[C@H](NC(=O)C2CC2)[C@@H](CO)O1)NC1CCC1`, the CPE inhibition is reported as inactive: 3.37%. With `OC[C@@H]1[C@@H](c2ccccc2)C2(CN(CC3CCOCC3)C2)N1Cc1nccs1` the CPE inhibition was active: 51.1%. With `Cc1ccc(S(=O)(=O)Nc2ccccc2F)cc1C(=O)OC(C)C(=O)N1CCOCC1` (stereo unspecified) the CPE inhibition was inactive: 1.07%.

— PubChem BioAssay AID651640 (Broad Institute, 2012)
